Data on 1 molecule can be found in PMC4525385.

Results are given in words; binding and its absence hold for the method and conditions named. Some binding calls cover weakened binding; strength is not graded here. Tags and fused reporters may be left off the sequences shown.

The assay addresses T1, TamA, histidine-tagged (pBADTamA-C-term-6xHis) (E. coli) (UniProt P0ADE4).
T1 sequence: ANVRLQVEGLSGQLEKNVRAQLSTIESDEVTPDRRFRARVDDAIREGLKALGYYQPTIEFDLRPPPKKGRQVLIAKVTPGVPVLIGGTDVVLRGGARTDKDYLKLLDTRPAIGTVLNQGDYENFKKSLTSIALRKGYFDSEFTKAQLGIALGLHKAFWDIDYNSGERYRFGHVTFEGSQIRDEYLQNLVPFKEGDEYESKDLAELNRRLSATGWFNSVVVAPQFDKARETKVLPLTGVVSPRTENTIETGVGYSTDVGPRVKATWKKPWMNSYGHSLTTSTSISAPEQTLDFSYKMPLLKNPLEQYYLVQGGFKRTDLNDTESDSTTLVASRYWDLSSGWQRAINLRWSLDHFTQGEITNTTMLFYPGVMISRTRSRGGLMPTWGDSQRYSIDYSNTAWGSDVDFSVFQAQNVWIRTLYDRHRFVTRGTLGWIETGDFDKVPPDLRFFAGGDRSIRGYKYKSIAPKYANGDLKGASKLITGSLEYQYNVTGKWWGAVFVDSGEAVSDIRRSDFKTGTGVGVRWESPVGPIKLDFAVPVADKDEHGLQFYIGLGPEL
In words: QCM-D; histidine-tagged TamA or deletion form attached to a Ni-ANTA gold surface, POPC membrane layer reconstituted around it; then 0.5 mL of 0.2 mg/ml TamB (step 3) and 0.5 mL of 0.2 mg/ml urea-denatured Ag43 (step 4) added one after the other, washes with 20 mM TRIS, 150 mM NaCl; 25 °C; both purified.

B1: Ag43, urea-denatured (protein, UniProt P39180 53-1039)
chain: ADIVVHPGETVNGGTLANHDNQIVFGTTNGMTISTGLEYGPDNEANTGGQWVQDGGTANKTTVTSGGLQRVNPGGSVSDTVISAGGGQSLQGRAVNTTLNGGEQWMHEGAIATGTVINDKGWQVVKPGTVATDTVVNTGAEGGPDAENGDTGQFVRGDAVRTTINKNGRQIVRAEGTANTTVVYAGGDQTVHGHALDTTLNGGYQYVHNGGTASDTVVNSDGWQIVKNGGVAGNTTVNQKGRLQVDAGGTATNVTLKQGGALVTSTAATVTGINRLGAFSVVEGKADNVVLENGGRLDVLTGHTATNTRVDDGGTLDVRNGGTATTVSMGNGGVLLADSGAAVSGTRSDGKAFSIGGGQADALMLEKGSSFTLNAGDTATDTTVNGGLFTARGGTLAGTTTLNNGAILTLSGKTVNNDTLTIREGDALLQGGSLTGNGSVEKSGSGTLTVSNTTLTQKAVNLNEGTLTLNDSTVTTDVIAQRGTALKLTGSTVLNGAIDPTNVTLASGATWNIPDNATVQSVVDDLSHAGQIHFTSTRTGKFVPATLKVKNLNGQNGTISLRVRPDMAQNNADRLVIDGGRATGKTILNLVNAGNSASGLATSGKGIQVVEAINGATTEEGAFVQGNRLQAGAFNYSLNRDSDESWYLRSENAYRAEVPLYASMLTQAMDYDRIVAGSRSHQTGVNGENNSVRLSIQGGHLGHDNNGGIARGATPESSGSYGFVRLEGDLMRTEVAGMSVTAGVYGAAGHSSVDVKDDDGSRAGTVRDDAGSLGGYLNLVHTSSGLWADIVAQGTRHSMKASSDNNDFRARGWGWLGSLETGLPFSITDNLMLEPQLQYTWQGLSLDDGKDNAGYVKFGHGSAQHVRAGFRLGSHNDMTFGEGTSSRAPLRDSAKHSVSELPVNWWVQPSVIRTFSSRGDMRVGTSTAGSGMTFSPSQNGTSLDLQAGLEARVRENITLGVQAGYAHSVSGSSAEGYNGQATLNVTF
Regarding B1, the binding result is “binds”.
